Publication PMC11791083
Results are given in words; binding and its absence hold for the method and conditions named. Binding seen in cells or lysates may run through a third protein. Here binding means that the protein was enriched with, or labelled near, the bait; the list need not be complete. For some of these results: Tags and fused reporters may be left off the sequences shown.

Chains of the proteins cited; added tags and fusions are not shown.
UniProt Q15717: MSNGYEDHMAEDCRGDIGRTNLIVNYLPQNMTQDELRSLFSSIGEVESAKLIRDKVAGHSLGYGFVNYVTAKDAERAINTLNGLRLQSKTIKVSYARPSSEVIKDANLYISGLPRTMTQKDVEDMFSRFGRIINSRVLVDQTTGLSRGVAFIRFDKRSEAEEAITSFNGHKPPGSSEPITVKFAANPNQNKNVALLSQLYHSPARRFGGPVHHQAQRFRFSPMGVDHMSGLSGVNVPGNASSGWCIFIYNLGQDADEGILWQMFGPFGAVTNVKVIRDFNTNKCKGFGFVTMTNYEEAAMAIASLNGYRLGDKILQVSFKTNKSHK
UniProt O00571: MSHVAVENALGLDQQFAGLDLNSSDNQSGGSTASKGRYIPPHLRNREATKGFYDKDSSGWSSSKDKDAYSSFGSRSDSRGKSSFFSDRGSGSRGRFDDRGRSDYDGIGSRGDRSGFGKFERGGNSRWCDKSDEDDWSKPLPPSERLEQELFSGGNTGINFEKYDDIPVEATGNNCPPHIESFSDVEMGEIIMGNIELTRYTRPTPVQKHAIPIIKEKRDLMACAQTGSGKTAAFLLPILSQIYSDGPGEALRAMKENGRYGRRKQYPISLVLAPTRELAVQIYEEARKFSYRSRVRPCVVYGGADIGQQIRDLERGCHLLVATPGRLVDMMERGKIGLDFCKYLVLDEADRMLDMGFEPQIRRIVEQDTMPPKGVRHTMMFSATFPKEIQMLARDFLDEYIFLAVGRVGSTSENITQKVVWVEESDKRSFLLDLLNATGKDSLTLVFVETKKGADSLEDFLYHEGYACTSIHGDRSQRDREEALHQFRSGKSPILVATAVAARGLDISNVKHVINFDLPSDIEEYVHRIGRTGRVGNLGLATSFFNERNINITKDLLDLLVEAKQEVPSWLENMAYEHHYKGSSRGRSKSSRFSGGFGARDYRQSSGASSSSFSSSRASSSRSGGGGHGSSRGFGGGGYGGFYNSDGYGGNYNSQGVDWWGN
UniProt O43143: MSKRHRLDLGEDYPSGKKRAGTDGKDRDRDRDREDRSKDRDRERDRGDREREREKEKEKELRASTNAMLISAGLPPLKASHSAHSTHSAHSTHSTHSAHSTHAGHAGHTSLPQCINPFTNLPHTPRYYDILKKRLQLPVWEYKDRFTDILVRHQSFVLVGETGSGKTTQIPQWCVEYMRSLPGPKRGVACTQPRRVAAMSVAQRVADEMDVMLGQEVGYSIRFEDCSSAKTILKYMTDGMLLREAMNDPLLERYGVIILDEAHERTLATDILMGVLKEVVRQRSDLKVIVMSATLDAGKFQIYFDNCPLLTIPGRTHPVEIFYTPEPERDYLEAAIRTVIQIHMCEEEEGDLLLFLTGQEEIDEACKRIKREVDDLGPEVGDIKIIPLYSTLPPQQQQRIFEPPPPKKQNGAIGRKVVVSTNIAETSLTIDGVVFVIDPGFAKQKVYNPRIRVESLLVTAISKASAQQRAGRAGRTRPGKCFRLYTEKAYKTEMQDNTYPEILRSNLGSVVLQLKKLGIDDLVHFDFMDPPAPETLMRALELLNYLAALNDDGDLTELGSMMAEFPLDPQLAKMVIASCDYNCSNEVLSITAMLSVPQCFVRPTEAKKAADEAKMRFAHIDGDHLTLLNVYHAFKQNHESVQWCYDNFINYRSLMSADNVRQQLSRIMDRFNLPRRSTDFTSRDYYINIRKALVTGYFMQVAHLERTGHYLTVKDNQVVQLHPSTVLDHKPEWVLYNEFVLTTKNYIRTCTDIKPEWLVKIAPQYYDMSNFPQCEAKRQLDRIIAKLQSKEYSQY
UniProt Q7Z2W4: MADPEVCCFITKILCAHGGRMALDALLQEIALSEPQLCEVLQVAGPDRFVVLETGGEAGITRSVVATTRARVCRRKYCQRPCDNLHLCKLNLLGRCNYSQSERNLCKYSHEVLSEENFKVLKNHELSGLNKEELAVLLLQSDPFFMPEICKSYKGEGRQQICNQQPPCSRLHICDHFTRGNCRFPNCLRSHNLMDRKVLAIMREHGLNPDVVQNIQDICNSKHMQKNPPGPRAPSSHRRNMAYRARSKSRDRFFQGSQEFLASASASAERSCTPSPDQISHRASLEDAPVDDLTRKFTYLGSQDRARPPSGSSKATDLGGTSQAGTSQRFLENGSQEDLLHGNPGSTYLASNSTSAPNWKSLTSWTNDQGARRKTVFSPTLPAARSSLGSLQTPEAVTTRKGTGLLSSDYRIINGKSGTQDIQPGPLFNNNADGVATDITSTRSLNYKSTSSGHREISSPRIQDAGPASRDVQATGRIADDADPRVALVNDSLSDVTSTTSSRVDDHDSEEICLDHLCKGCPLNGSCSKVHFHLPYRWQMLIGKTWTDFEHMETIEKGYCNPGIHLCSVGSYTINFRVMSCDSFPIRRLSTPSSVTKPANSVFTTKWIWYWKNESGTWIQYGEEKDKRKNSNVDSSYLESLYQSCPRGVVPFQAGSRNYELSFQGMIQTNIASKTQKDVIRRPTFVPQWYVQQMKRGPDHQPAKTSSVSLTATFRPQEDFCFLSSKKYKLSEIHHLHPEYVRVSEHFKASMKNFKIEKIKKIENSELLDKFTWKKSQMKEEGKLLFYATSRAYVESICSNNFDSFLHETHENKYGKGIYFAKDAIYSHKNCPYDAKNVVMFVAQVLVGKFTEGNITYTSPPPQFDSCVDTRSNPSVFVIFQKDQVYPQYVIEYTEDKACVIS

T1: heterogeneous nuclear ribonucleoprotein M, C-terminally GFP-tagged (hnRNPM-GFP) (human) (UniProt P52272)
T1 sequence: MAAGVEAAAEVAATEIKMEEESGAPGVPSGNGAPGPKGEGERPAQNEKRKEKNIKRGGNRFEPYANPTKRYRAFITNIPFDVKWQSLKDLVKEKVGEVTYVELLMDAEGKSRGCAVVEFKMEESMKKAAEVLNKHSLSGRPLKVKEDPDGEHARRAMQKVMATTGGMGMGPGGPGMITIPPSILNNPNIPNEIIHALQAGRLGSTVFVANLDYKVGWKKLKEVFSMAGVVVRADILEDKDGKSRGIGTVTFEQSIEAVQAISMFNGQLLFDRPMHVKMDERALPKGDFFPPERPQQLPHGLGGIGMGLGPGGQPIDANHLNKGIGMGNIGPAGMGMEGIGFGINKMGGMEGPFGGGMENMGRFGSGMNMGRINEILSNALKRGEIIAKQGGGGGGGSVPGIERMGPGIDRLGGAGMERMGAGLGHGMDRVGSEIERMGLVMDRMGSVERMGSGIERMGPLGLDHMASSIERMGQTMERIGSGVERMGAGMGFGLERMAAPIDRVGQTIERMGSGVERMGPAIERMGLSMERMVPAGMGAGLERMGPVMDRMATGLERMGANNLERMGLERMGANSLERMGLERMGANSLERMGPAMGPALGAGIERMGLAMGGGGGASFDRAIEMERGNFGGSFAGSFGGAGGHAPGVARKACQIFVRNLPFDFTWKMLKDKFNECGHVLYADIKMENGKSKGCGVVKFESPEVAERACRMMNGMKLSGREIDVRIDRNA

B1: heterogeneous nuclear ribonucleoprotein M (hnRNPM), endogenous in THP-1 (protein, UniProt P52272 1-730)
chain: T1 sequence
B2: IκB kinase β (IKKβ), endogenous in THP-1 (protein, UniProt O14920 1-756)
chain: MSWSPSLTTQTCGAWEMKERLGTGGFGNVIRWHNQETGEQIAIKQCRQELSPRNRERWCLEIQIMRRLTHPNVVAARDVPEGMQNLAPNDLPLLAMEYCQGGDLRKYLNQFENCCGLREGAILTLLSDIASALRYLHENRIIHRDLKPENIVLQQGEQRLIHKIIDLGYAKELDQGSLCTSFVGTLQYLAPELLEQQKYTVTVDYWSFGTLAFECITGFRPFLPNWQPVQWHSKVRQKSEVDIVVSEDLNGTVKFSSSLPYPNNLNSVLAERLEKWLQLMLMWHPRQRGTDPTYGPNGCFKALDDILNLKLVHILNMVTGTIHTYPVTEDESLQSLKARIQQDTGIPEEDQELLQEAGLALIPDKPATQCISDGKLNEGHTLDMDLVFLFDNSKITYETQISPRPQPESVSCILQEPKRNLAFFQLRKVWGQVWHSIQTLKEDCNRLQQGQRAAMMNLLRNNSCLSKMKNSMASMSQQLKAKLDFFKTSIQIDLEKYSEQTEFGITSDKLLLAWREMEQAVELCGRENEVKLLVERMMALQTDIVDLQRSPMGRKQGGTLDDLEEQARELYRRLREKPRDQRTEGDSQEMVRLLLQAIQSFEKKVRVIYTQLSKTVVCKQKALELLPKVEEVVSLMNEDEKTVVRLQEKRQKELWNLLKIACSKVRGPVSGSPDSMNASRLSQPGQLMSQPSTASNSLPEPAKKSEELVAEAHNLCTLLENAIQDTVREQDQSFTALDWSWLQTEEEEHSCLEQAS

target: ELAV-like protein 1, GFP-tagged (ELAVL1-GFP) (human) (UniProt Q15717); test: affinity purification with mass spectrometry; GFP-Trap magnetic agarose on lysates of non-stimulated THP-1 cells expressing hnRNPM-GFP, ELAVL1-GFP or GFP (control); TAP lysis buffer (100 mM NaCl, 50 mM Tris/HCl, 1.5 mM MgCl2, 5% glycerol, 0.5% IGEPAL CA-630, pH 7.5), 4 °C overnight; LC-MS/MS, enrichment against GFP

binding, binds:
B1

target: T1, heterogeneous nuclear ribonucleoprotein M, C-terminally GFP-tagged (hnRNPM-GFP) (human); test: as above

binding, binds:
DEAD-box helicase 3 X-linked (DDX3X), endogenous in THP-1 (from UniProt O00571 1-662)
DNA-dependent protein kinase catalytic subunit (PRKDC), endogenous in THP-1 (from UniProt P78527 1-4128)
ELAV-like protein 1 (ELAVL1), endogenous in THP-1 (from UniProt Q15717 1-326)
pre-mRNA-splicing factor ATP-dependent RNA helicase DHX15 (DHX15), endogenous in THP-1 (from UniProt O43143 1-795)
zinc finger CCCH-type antiviral protein 1 (ZC3HAV1), endogenous in THP-1 (from UniProt Q7Z2W4 1-902)
B2
